According to patent US20140302034A1 (STEM CENTRX, published 2014):
Results are given in words; binding and its absence hold for the method and conditions named. Binding calls can cover weak binding; strength is not graded here.

What was measured:
[1] = target: recombinant human EFNA3 His fusion protein (human); assay: Western blot with non-reduced (NR) and reduced (R) samples, Example 8
[2] = target: recombinant human EFNA1 His fusion protein (human); assay: as above

binding [1]	binding [2]	Binder
binds		SC11.34 (antibody, V domains shown, Murine monoclonal antibody from a hybridoma; also called EFNA3 modulator SC11.34) VH: DVHLQETGPGLVKPSQSLSVTCTVTGYSITSDYAWNWIRQFPGNKLEWMGYISYSGGTRYNPSVKSRISITRDTSKNQFFLQLNSVTTEDTATYYCARGPYAGYPAWFDYWGPGTLVTVSA VL: ENVLTQSPAIMSASLGEKVTMSCRANSSINYMYWYQQKSDASPKLWIYYTSNLAPGVPARFSGSGSGNSYSLTISSMEGEDAATYYCQQFTSSPWTFGGGTKLEIK
	binds	SC9.20 (antibody, V domains shown) VH: DVQLQESGPGLVKPSQSLSLTCSVTGYSITSGYYWNWIRQFPGNRLEWMAYISYDGSNDYNPSLKNRISITRDTSKNQFFLKLNSVTTEDTATYYCARGYPILFAYWGQGTLVTVSA VL: DIKMTQSPSSMNASLGERVSITCKTSQDINSYLSWLQQKPGKSPKTLIYRANRLVDGVPSRFSGSGSGQDYSLTISSLEYEDMGIYYCLQYDEFPLTFGIGTKLELK
binds		SC11.51 (antibody, V domains shown, Murine monoclonal antibody from a hybridoma; also called EFNA3 modulator SC11.51) VH: EVQLQQSGPELVKPGASVKISCKASGYTFTDYYMNWVKQTHGKSLEWIGDITPNSGGPTYNQNFKGKATLTVDRSSTTAFMELRSLTSDDSAVYYCVRSAYYYGTNYDFDYWGQGTTLTVSS VL: QIVLTQSPAIMSASPGEKVTMTCSASSSVTYMYWYQQKPGSSPKPWIYRTSNLASGVPTRFSGSGSGTSYSLTISSVEAEDTATYYCQQYSDYPLTFGAGTKLELK
